Experimental data as given in publication PMC2265411.

Chains of the proteins cited; added tags and fusions are not shown. Lines headed by an entry give the natural chain unless they say otherwise; changes in a name come on top.
UniProt P51809: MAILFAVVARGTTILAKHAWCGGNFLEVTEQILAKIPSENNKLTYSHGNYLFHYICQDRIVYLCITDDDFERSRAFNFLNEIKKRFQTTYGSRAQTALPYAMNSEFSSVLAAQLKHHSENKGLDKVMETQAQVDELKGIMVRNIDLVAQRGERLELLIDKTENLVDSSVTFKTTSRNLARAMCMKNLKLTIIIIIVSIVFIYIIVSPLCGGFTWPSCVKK

Biological target: GFP-Vamp7 deleted of its SNARE motif (GFP-Longin) (UniProt P51809)
Assay: co-IP; HeLa cells co-transfected with the inclusion protein and a GFP-SNARE, lysed 24 h later in 50 mM Tris, 150 mM NaCl, 1% Triton X-100, 10 mM EDTA, pH 7.5; GFP-tagged proteins precipitated with anti-GFP monoclonal antibodies; blots with anti-IncA or anti-His

B1: C. trachomatis IncA with a carboxyterminal His tag, expressed in HeLa cells (protein, UniProt P0CI27 1-273)
chain: MTTPTLIVTPPSPPAPSYSANRVPQPSLMDKIKKIAAIASLILIGTIGFLALLGHLVGFLIAPQITIVLLALFIISLAGNALYLQKTANLHLYQDLQREVGSLKEINFMLSVLQKEFLHLSKEFATTSKDLSAVSQDFYSCLQGFRDNYKGFESLLDEYKNSTEEMRKLFSQEIIADLKGSVASLREEIRFLTPLAEEVRRLAHNQQSLTVVIEELKTIRDSLRDEIGQLSQLSKTLTSQIALQRKESSDLCSQIRETLSSPRKSASPSTKSS
- binding: no binding

No constants are given. Whether binding was seen depends on the method and setting. In cells and extracts the contact can be indirect. Sequences can lack the tags named with a protein.
